Patent publication US20180297931A1
These are yes or no findings as the source states them, for the method shown. Some entries that bind do so weakly or less than the wild type.

Target: T1, very long chain acyl-CoA dehydrogenase (VLCAD), mouse liver (mouse), P50544
T1 chain: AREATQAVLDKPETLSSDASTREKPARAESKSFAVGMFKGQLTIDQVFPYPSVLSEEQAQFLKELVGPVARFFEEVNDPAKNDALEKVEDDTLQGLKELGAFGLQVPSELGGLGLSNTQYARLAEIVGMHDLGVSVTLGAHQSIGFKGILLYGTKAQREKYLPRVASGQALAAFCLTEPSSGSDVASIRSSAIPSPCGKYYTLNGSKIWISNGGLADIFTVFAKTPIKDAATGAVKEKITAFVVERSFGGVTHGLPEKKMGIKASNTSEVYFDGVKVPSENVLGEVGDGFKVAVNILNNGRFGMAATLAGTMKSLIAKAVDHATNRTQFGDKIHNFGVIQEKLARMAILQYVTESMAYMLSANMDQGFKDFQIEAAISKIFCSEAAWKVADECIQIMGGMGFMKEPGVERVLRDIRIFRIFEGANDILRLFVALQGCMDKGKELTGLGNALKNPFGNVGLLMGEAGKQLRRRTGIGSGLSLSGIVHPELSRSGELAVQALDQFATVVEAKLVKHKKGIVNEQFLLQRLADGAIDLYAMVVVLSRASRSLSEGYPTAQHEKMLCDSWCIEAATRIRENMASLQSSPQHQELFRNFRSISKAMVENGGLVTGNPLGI
Experiment: native gel electrophoresis with Western blot, liver mitochondria fractions
Conditions: remark: other sources report otherwise

binding: binds
B1: very long chain acyl-CoA dehydrogenase (VLCAD), mouse liver, P50544 42-656 (enzyme, UniProt P50544 42-656, looked up)
chain: AREATQAVLDKPETLSSDASTREKPARAESKSFAVGMFKGQLTIDQVFPYPSVLSEEQAQFLKELVGPVARFFEEVNDPAKNDALEKVEDDTLQGLKELGAFGLQVPSELGGLGLSNTQYARLAEIVGMHDLGVSVTLGAHQSIGFKGILLYGTKAQREKYLPRVASGQALAAFCLTEPSSGSDVASIRSSAIPSPCGKYYTLNGSKIWISNGGLADIFTVFAKTPIKDAATGAVKEKITAFVVERSFGGVTHGLPEKKMGIKASNTSEVYFDGVKVPSENVLGEVGDGFKVAVNILNNGRFGMAATLAGTMKSLIAKAVDHATNRTQFGDKIHNFGVIQEKLARMAILQYVTESMAYMLSANMDQGFKDFQIEAAISKIFCSEAAWKVADECIQIMGGMGFMKEPGVERVLRDIRIFRIFEGANDILRLFVALQGCMDKGKELTGLGNALKNPFGNVGLLMGEAGKQLRRRTGIGSGLSLSGIVHPELSRSGELAVQALDQFATVVEAKLVKHKKGIVNEQFLLQRLADGAIDLYAMVVVLSRASRSLSEGYPTAQHEKMLCDSWCIEAATRIRENMASLQSSPQHQELFRNFRSISKAMVENGGLVTGNPLGI
